The supplement of paper PMC3334620
Whole data set: some 33,000 sequences, median “E-score (-0.5 to 0.5)” near -0.0059, cut for the highest 2% near 0.26. This is one part of the list.

molecular target: T1, Cin5 (UniProt P40917); experiment: PBM E-score (8-mer binding enrichment) (E-score (-0.5 to 0.5)); higher = stronger / more preferred TF binding; details: protein concentration: 100 nM; construct: GST-full length
T1 sequence: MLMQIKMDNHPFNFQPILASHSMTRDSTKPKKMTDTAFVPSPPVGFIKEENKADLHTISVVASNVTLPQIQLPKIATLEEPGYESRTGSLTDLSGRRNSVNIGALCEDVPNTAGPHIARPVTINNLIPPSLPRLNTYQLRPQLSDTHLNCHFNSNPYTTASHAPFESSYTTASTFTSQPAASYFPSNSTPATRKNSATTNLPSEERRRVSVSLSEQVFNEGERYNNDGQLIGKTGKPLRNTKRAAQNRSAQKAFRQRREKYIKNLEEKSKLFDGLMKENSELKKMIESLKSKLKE
Outline: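 GST-tagged yeast TFs (full-length or DNA-binding domain) were made by PURExpress in vitro transcription/translation and applied at about 100-200 nM to universal all-10-mer Agilent arrays. The arrays were made double-stranded by primer extension, on fresh or once-stripped slides. Bound protein was detected with fluorescent anti-GST, and scans were normalised with masliner. Each ungapped eight-base word, pooled with its reverse complement, received an E-score (modified Wilcoxon-Mann-Whitney statistic) from the Universal PBM Analysis Suite.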

| Sequence | PBM E-score |
| --- | --- |
| AAACCAAT | 0.188 |
| GCGTTAAA | 0.00644 |
| GGAAACCC | 0.101 |
| CACGACGA | -0.168 |
| ATCCGTTC | 0.0322 |
| AACGGTGA | -0.126 |
| AATACAAT | 0.154 |
| CAAAACGA | 0.0397 |
| CAAATTAA | 0.191 |
| ATGAGATC | 0.0882 |
| AAGTGGAG | 0.0547 |
| TAAACAGA | 0.0674 |
| ATCACCTA | 0.0946 |
| CTCAAGCA | -0.0562 |
| AATCATGC | 0.052 |
| CATTCTGC | 0.0745 |
| GAGGATCC | -0.105 |
| GTCTCGTA | -0.0497 |
| ACACATGC | -0.0902 |
| GAATGACC | 0.00803 |
| ACGCCTAC | -0.177 |
| AATAGTTA | 0.105 |
| CCTTCCGC | -0.205 |
| CCTCCAAG | -0.185 |
| AATCGATA | 0.247 |

| Sequence | PBM E-score |
| --- | --- |
| AGGCACCA | -0.0194 |
| ACCGTTAT | -0.0275 |
| ACTCATCA | 0.0115 |
| AGAGCCCG | -0.148 |
| ATTAACAA | 0.274 |
| GAACACCA | -0.138 |
| TCGATAGA | -0.0445 |
| TCGTTAAA | -0.0492 |
| CACATCTC | 0.16 |
| TCATCAAA | 0.0473 |
| ACCCATCC | -0.0519 |
| CATTAGTA | 0.188 |
| GAGCAATA | 0.0169 |
| AGCACTTC | 0.065 |
| AAGTGGGG | -0.101 |
| ACAGGAAT | -0.0516 |
| GCGGCTAA | -0.00261 |
| GACCAGGA | -0.112 |
| TGGGTGAA | 0.225 |
| CGAATATC | 0.144 |
| CACCTGAG | -0.0269 |
| AGGATAAG | -0.0206 |
| TTCATCAA | 0.165 |
| TATTCTAA | 0.134 |
| TAGCATGA | 0.135 |

| Sequence | PBM E-score |
| --- | --- |
| CGATCGAC | 0.0723 |
| ATTCAATA | 0.182 |
| CAGACCCG | -0.0305 |
| ACGGGCAA | -0.141 |
| ATCAGTAC | 0.0414 |
| CTACTATC | 0.257 |
| CAATTCAG | 0.0836 |
| GTCTAAAC | 0.0651 |
| TTCGTCAA | 0.016 |
| AAGAACGT | 0.15 |
| CCCCATGC | -0.0905 |
| CTAGCGAG | -0.221 |
| AGGTAAGA | 0.0847 |
| ATCAACAT | 0.169 |
| CCAGTCCC | -0.0959 |
| ATTTTCAC | 0.143 |
| TGCCTCCA | -0.213 |
| CAGCGTGC | -0.161 |
| AAGCCAAC | 0.00646 |
| AACCAATG | 0.152 |
| GCGTATGA | 0.0035 |
| AATTATAG | 0.188 |
| CGGGTCGA | -0.181 |
| ACATGTGC | 0.0977 |
| GATGCTGC | -0.13 |

| Sequence | PBM E-score |
| --- | --- |
| ACGGATTG | 0.169 |
| AAAGGGTG | -0.149 |
| CCTACCGA | -0.0732 |
| AACTACCG | -0.131 |
| GACCTCTC | -0.0169 |
| CTCGGAAG | -0.0459 |
| CTAGAGAC | -0.172 |
| GGGGTTGA | 0.0524 |
| GATAAACC | 0.0849 |
| AACATCGT | -0.0661 |
| CGTTGGCA | -0.0305 |
| GTTAGGCA | -0.149 |
| AATTACTC | 0.241 |
| CGCAATCC | 0.16 |
| ACTGTCAG | 0.103 |
| ACCGTGTG | -0.178 |
| GAGGTCTA | -0.179 |
| ACTCCTTC | -0.155 |
| CGGCTTTC | -0.091 |
| AGCTAGAG | -0.0418 |
| ACCCCTCT | -0.17 |
| CGGTGTAC | -0.147 |
| CATAAATA | 0.183 |
| CTGAAAAC | -0.105 |
| ATACTGAC | 0.192 |

| Sequence | PBM E-score |
| --- | --- |
| TCGAACGA | 0.103 |
| GAGGTATC | -0.12 |
| CCAAATAG | 0.0432 |
| CCCACGAG | -0.086 |
| AGACTGTC | -0.224 |
| CCGGCTAC | -0.0224 |
| ACGTGGAG | 0.0901 |
| CCTCTTCG | 0.0255 |
| ATGCCCTA | -0.0594 |
| CTTGCCTC | -0.103 |
| AGTATATA | 0.346 |
| GCGATGGA | 0.0569 |
| AGCTTGCC | -0.0852 |
| AGGACTCC | -0.328 |
| AACGAGCC | -0.188 |
| CGCCCCAC | 0.131 |
| CCACTAGA | -0.235 |
| ACCACCTA | -3e-05 |
| ACGCGGTC | -0.0605 |
| CACTGAAC | 0.0413 |
| ATCCCTAG | 0.0251 |
| CTGACGCC | -0.194 |
| CTGCCCCC | -0.324 |
| AAAGGTAG | -0.101 |
| CTCTAAAG | -0.0882 |

| Sequence | PBM E-score |
| --- | --- |
| AGCTCATG | -0.0196 |
| ACTCATAA | 0.132 |
| ACGCAACC | -0.0681 |
| AAGGGCAC | -0.219 |
| GCATTGCA | 0.0405 |
| CGGAGTCC | 0.00061 |
| CGCGGCTA | 0.107 |
| TCAGGCCA | -0.0616 |
| AGTGTTAG | 0.0972 |
| AGTCATTG | 0.0305 |
| CCACGGCA | -0.0943 |
| TAAGGCAA | 0.0779 |
| ATACCTTA | 0.0223 |
| AGATACCA | 0.254 |
| AGCGGAAA | 0.238 |
| ACTCTCAT | 0.115 |
| CCATGTAA | 0.171 |
| GGCTGTCA | -0.21 |
| ACAGGGAG | -0.221 |
| AGTGCAGG | 0.0389 |
| CCGAACTC | -0.0235 |
| AGCCGTTG | -0.0672 |
| AGGGGGAG | -0.399 |
| ACTGAAGA | -0.0176 |
| ATCTGAAT | 0.0915 |

Reprinted at random: 7 entries already listed

| Sequence | PBM E-score |
| --- | --- |
| CTCAAGCA | -0.0562 |
| CCCACGAG | -0.086 |
| AAAGGTAG | -0.101 |
| GGCTGTCA | -0.21 |
| ATCACCTA | 0.0946 |
| GAGGATCC | -0.105 |
| CTCTAAAG | -0.0882 |

Following part:

| Sequence | PBM E-score |
| --- | --- |
| CCGTTGCC | -0.259 |
| CCCGGCGC | -0.236 |
| CTCACAGC | -0.0256 |
| ACCAATTG | -0.0132 |
| ATCTGCGG | 0.114 |
| CACCGAAA | 0.0875 |
| AAATCCTA | 0.103 |
| ACGCCTCC | -0.214 |
| ATCCCCAG | -0.00316 |
| AGAACCGG | -0.0383 |
| ACCCGACG | -0.0936 |
| CATAGGAG | 0.0535 |
| ACTAACCA | 0.0193 |
| GCGCCTAA | -0.0308 |
| AGAGATTA | 0.175 |
| CGGCAGCC | -0.0672 |
| AATCTTAC | 0.25 |
| AGTCCATA | -0.0502 |
| ACTCGGCT | -0.0112 |
| GATCCGAC | -0.172 |
| CATGGTGG | -0.149 |
| CGTATTCC | 0.148 |
